Test results as given in article PMC6858607.
Results are given in words; binding and its absence hold for the method and conditions named. In cells and extracts the contact can be indirect. Some binding calls cover weakened binding; strength is not graded here.

Target: Pseudomonas aeruginosa lectin LecB, biotinylated (P. aeruginosa) (UniProt Q9HYN5)
Assay: pull-down; NHKs stimulated with 5 ug/ml (106 nM) biotinylated LecB, lysates incubated with streptavidin beads, eluted, Western blot; also as a time series; only the target purified

Row | Substance | binding
1 | epidermal growth factor receptor 1 (from UniProt P00533 25-1210) | binds
2 | insulin-like growth factor-1 receptor (from UniProt P08069 31-1367) | binds
